Results from the supplement of paper PMC12823440, “Inhibitors supercharge kinase turnover through native proteolytic circuits” (Nature, 2025).
This is one part of the list. Hit calls seldom repeat between salt and free forms of one compound.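 Kinases were expressed as nanoluciferase fusions in K562 cells and luminescence was read every 4 h between 2 and 18 h as percent of control, DMSO set to 100% and a positive control to 0%. A time point counts as decreased when the signal drops significantly (2 sigma). The hit call is the authors' own, does not follow from the count of time points alone, and its rule is not shown.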

Amino acid sequences for entries named in this document (tags omitted). A change or cut given only in a name is not applied to a line headed by its entry.
UniProt O75460: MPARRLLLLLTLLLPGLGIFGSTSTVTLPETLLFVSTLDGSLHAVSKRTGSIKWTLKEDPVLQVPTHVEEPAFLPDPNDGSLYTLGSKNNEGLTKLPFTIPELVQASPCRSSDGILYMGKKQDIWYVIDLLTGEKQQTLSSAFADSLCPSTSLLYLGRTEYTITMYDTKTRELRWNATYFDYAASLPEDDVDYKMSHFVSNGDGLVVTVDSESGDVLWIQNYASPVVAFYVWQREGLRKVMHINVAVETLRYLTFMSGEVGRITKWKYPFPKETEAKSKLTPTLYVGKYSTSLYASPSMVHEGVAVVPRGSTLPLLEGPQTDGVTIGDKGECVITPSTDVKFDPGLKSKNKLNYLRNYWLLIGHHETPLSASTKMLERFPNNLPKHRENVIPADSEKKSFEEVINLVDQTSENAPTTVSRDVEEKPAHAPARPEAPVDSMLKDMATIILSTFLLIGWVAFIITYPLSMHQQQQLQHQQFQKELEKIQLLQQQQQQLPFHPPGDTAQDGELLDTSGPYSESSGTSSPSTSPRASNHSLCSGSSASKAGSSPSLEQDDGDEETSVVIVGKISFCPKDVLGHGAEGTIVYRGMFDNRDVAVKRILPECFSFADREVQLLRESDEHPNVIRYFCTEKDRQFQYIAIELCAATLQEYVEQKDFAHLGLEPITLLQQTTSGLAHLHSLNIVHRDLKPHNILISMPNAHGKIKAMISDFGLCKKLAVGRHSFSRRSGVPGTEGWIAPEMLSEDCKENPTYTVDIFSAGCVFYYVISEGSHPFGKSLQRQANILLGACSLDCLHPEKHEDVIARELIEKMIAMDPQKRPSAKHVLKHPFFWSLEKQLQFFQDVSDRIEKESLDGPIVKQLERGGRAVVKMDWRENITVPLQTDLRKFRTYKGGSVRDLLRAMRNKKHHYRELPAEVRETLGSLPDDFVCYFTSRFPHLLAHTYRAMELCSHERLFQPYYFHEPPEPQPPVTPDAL
UniProt P11362, whole entry, looked up: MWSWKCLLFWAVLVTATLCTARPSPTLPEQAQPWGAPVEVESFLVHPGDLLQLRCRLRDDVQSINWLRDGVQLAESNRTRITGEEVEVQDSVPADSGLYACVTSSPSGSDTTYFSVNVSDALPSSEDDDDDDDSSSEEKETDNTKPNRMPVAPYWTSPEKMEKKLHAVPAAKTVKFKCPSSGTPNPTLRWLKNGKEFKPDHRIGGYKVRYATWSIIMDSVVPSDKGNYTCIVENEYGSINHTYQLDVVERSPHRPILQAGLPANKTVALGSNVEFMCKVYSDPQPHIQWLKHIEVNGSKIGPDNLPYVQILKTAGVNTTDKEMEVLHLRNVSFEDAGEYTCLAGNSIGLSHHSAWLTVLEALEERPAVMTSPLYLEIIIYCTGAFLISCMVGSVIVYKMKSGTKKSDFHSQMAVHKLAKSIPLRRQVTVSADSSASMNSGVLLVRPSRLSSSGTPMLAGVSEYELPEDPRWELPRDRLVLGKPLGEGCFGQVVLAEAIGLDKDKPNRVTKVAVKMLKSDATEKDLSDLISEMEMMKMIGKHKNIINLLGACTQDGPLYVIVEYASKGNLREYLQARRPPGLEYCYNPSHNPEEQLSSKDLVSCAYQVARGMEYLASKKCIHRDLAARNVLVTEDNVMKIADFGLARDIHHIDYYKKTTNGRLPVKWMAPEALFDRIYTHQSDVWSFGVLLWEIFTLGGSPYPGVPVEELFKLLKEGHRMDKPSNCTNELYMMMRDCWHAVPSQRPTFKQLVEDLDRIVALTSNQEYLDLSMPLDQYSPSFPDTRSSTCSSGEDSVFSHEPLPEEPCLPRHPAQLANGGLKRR
UniProt P21802, whole entry, looked up: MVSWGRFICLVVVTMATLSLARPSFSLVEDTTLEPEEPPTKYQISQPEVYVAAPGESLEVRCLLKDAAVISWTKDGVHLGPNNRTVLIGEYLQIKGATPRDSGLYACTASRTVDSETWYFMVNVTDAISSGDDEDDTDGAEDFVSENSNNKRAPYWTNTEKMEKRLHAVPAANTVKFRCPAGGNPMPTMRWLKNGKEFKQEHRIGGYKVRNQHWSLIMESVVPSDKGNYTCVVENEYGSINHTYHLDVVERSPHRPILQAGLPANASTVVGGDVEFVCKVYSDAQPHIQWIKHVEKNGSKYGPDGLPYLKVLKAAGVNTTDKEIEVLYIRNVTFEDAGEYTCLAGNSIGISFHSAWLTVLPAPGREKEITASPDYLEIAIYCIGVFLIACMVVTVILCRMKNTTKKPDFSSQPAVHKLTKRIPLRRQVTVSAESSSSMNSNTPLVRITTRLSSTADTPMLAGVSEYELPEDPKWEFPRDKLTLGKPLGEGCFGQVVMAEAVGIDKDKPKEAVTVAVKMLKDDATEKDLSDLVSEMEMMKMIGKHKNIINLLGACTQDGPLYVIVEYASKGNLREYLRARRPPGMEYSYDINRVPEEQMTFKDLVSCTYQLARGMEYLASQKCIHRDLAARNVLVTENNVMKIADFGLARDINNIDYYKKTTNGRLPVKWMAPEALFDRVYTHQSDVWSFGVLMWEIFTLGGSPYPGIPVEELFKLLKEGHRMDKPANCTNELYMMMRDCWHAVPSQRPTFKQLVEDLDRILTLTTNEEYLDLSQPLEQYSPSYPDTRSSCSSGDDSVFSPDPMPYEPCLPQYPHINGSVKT
UniProt P22607, whole entry, looked up: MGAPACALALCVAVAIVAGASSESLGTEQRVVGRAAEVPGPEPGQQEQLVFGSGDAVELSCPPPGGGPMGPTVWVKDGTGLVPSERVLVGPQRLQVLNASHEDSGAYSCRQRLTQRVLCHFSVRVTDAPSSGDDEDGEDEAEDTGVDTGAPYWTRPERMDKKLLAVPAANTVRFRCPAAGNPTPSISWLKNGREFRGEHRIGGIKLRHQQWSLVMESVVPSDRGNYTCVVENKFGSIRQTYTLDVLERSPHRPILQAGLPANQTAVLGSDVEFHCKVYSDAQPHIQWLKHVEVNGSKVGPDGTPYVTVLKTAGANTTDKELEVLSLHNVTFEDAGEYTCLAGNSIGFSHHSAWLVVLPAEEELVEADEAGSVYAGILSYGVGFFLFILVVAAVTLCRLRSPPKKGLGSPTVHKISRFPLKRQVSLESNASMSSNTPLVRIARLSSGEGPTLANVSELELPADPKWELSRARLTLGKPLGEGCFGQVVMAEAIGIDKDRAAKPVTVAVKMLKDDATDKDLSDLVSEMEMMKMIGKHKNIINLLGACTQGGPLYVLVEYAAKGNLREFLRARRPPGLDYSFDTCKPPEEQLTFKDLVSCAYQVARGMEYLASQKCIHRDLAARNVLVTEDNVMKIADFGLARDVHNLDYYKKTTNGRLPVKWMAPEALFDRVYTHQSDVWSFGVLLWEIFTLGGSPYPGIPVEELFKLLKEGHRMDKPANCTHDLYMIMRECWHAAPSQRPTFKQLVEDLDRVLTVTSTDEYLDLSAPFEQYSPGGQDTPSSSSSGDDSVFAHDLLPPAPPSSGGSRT
UniProt P36888, whole entry: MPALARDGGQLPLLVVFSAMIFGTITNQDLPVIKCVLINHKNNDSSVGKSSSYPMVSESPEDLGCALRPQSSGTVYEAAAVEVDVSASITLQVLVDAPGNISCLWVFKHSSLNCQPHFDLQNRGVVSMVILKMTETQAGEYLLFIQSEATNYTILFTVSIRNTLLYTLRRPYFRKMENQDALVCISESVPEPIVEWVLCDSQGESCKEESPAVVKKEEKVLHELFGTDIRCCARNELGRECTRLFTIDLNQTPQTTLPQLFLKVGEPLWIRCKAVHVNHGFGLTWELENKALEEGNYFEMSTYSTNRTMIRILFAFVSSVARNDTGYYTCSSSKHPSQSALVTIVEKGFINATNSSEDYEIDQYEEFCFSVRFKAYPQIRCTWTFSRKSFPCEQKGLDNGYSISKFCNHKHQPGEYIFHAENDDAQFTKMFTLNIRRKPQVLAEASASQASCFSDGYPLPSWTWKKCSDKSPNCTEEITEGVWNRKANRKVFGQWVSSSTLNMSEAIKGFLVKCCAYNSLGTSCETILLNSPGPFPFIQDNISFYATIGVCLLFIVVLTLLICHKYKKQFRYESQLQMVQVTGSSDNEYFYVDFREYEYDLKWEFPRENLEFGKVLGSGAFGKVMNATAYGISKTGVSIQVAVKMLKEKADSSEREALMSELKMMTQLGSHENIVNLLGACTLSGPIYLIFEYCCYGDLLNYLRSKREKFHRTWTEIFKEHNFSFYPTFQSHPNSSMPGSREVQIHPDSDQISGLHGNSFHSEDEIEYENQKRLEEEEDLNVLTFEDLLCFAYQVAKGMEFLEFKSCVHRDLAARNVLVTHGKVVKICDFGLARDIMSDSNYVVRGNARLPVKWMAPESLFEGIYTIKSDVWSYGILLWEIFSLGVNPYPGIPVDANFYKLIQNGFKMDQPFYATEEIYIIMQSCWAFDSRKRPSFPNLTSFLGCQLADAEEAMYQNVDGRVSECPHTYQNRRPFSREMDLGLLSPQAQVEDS
UniProt P06241, whole entry, looked up: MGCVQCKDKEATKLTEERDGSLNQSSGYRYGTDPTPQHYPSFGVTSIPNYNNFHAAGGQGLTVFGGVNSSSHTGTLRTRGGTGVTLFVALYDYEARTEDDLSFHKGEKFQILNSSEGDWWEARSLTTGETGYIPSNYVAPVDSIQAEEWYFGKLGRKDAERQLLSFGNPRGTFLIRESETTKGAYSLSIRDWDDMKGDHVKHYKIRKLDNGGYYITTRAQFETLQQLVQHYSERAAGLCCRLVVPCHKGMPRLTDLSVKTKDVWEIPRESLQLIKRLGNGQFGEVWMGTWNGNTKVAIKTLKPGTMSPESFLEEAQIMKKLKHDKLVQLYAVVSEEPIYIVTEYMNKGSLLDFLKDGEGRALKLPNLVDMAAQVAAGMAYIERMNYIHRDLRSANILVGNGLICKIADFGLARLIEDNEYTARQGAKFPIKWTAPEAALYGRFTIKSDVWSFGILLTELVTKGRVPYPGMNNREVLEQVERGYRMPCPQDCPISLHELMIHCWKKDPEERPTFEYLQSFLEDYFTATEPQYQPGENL
UniProt P14616: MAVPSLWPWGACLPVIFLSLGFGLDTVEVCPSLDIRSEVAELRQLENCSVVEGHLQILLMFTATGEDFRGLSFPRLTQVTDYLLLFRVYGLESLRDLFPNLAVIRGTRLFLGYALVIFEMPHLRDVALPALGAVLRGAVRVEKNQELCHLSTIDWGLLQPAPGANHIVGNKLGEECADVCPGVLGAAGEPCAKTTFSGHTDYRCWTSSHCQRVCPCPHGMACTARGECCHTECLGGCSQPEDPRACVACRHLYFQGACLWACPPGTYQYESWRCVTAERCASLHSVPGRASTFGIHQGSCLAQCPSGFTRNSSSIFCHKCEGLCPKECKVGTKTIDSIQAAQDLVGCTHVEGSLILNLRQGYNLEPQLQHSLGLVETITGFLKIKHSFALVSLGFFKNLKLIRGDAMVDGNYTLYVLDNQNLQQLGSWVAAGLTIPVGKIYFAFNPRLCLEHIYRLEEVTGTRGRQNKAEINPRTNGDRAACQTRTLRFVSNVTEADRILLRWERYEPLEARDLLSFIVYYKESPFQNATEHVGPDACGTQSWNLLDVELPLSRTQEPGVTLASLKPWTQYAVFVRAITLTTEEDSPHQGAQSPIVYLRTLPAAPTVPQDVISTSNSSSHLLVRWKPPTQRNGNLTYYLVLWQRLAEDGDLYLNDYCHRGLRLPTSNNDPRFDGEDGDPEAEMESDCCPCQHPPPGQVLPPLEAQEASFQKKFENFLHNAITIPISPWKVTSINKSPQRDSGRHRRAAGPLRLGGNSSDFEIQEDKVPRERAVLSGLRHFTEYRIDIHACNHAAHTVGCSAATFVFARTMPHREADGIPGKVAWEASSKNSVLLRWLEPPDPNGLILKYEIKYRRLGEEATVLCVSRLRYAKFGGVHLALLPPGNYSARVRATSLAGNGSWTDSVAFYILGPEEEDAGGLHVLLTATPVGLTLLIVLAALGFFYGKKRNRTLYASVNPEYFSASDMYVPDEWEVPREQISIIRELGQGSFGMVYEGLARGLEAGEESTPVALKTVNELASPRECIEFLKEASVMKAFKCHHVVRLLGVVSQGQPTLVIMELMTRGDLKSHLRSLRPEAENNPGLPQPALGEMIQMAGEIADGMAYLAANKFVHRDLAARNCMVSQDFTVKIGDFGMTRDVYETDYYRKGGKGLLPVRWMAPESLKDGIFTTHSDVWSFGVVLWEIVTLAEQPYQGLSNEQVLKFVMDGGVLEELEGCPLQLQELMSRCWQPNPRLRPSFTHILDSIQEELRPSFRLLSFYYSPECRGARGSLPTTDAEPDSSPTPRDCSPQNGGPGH

Columns and labels:
Test in all cases: kinase-Nluc reporter destabilization hit call (1 = scored as downregulated) (binary); higher = compound decreases kinase abundance
Settings in all cases: K562, 2-18 h
ERN1 = ERN1 (UniProt O75460)
FGFR1 = FGFR1 (UniProt P11362)
FGFR2 = FGFR2 (UniProt P21802)
FGFR3 = FGFR3 (UniProt P22607)
FGR = FGR (UniProt P09769)
FLT3 = FLT3 (UniProt P36888)
FYN = FYN (UniProt P06241)
GSK3A = GSK3A (UniProt P49840)
HER2 = HER2 (UniProt P04626)
INSRR = INSRR (UniProt P14616)

Measured: kinase-Nluc reporter destabilization hit call

O=C(Nc1cccc(Nc2nccc(Nc3cccc(C(F)(F)F)c3)n2)c1)C1CC1 [Aurora kinase inhibitor-3]
inactive: ERN1; 2.5 µM 0 | FGFR1; 2.5 µM 0 | FGFR2; 2.5 µM 0 | FGFR3; 2.5 µM 0 | FGR; 2.5 µM 0 | FLT3; 2.5 µM 0 | FYN; 2.5 µM 0 | GSK3A; 2.5 µM 0 | HER2; 2.5 µM 0 | INSRR; 2.5 µM 0

CCOc1cc2ncc(C#N)c(Nc3ccc(F)c(Cl)c3)c2cc1NC(=O)/C=C/CN(C)C [Pelitinib]
active: HER2; 2.5 µM 1
inactive: ERN1; 2.5 µM 0 | FGFR1; 2.5 µM 0 | FGFR2; 2.5 µM 0 | FGFR3; 2.5 µM 0 | FGR; 2.5 µM 0 | FLT3; 2.5 µM 0 | FYN; 2.5 µM 0 | GSK3A; 2.5 µM 0 | INSRR; 2.5 µM 0

CNC(=O)c1cc(Oc2ccc(NC(=O)Nc3ccc(Cl)c(C(F)(F)F)c3)cc2)ccn1 [Sorafenib (Tosylate)]
inactive: ERN1; 10 µM 0 | FGFR1; 10 µM 0 | FGFR2; 10 µM 0 | FGFR3; 10 µM 0 | FGR; 10 µM 0 | FLT3; 10 µM 0 | FYN; 10 µM 0 | GSK3A; 10 µM 0 | HER2; 10 µM 0 | INSRR; 10 µM 0

C=CC(=O)N(C)CCOc1c(N)ncnc1-c1cc(F)cc(NC(=O)c2ccc(C3CC3)cc2F)c1C [Remibrutinib]
inactive: ERN1; 10 µM 0 | FGFR1; 10 µM 0 | FGFR2; 10 µM 0 | FGFR3; 10 µM 0 | FGR; 10 µM 0 | FLT3; 10 µM 0 | FYN; 10 µM 0 | GSK3A; 10 µM 0 | HER2; 10 µM 0 | INSRR; 10 µM 0

CCOc1nc(NC(=O)Cc2cc(OC)ccc2OC)cc(N)c1C#N [JNK Inhibitor VIII]
inactive: ERN1; 10 µM 0 | FGFR1; 10 µM 0 | FGFR2; 10 µM 0 | FGFR3; 10 µM 0 | FGR; 10 µM 0 | FLT3; 10 µM 0 | FYN; 10 µM 0 | GSK3A; 10 µM 0 | HER2; 10 µM 0 | INSRR; 10 µM 0

CC#CC(=O)N1CCC[C@H]1c1nc(-c2ccc(C(=O)Nc3ccccn3)cc2)c2c(N)nccn12 [Acalabrutinib]
inactive: ERN1; 10 µM 0 | FGFR1; 10 µM 0 | FGFR2; 10 µM 0 | FGFR3; 10 µM 0 | FGR; 10 µM 0 | FLT3; 10 µM 0 | FYN; 10 µM 0 | GSK3A; 10 µM 0 | HER2; 10 µM 0 | INSRR; 10 µM 0

Compounds above that have a Cl atom (2):
CCOc1cc2ncc(C#N)c(Nc3ccc(F)c(Cl)c3)c2cc1NC(=O)/C=C/CN(C)C [Pelitinib]
active: HER2; 2.5 µM 1
inactive: ERN1; 2.5 µM 0 | FGFR1; 2.5 µM 0 | FGFR2; 2.5 µM 0 | FGFR3; 2.5 µM 0 | FGR; 2.5 µM 0 | FLT3; 2.5 µM 0 | FYN; 2.5 µM 0 | GSK3A; 2.5 µM 0 | INSRR; 2.5 µM 0

CNC(=O)c1cc(Oc2ccc(NC(=O)Nc3ccc(Cl)c(C(F)(F)F)c3)cc2)ccn1 [Sorafenib (Tosylate)]
inactive: ERN1; 10 µM 0 | FGFR1; 10 µM 0 | FGFR2; 10 µM 0 | FGFR3; 10 µM 0 | FGR; 10 µM 0 | FLT3; 10 µM 0 | FYN; 10 µM 0 | GSK3A; 10 µM 0 | HER2; 10 µM 0 | INSRR; 10 µM 0

Going on with the list.

C[C@@H]1O[C@@H](Oc2c(-c3ccc(O)c(O)c3)oc3cc(O)cc(O)c3c2=O)[C@H](O)[C@H](O)[C@H]1O [Quercitrin]
inactive: ERN1; 10 µM 0 | FGFR1; 10 µM 0 | FGFR2; 10 µM 0 | FGFR3; 10 µM 0 | FGR; 10 µM 0 | FLT3; 10 µM 0 | FYN; 10 µM 0 | GSK3A; 10 µM 0 | HER2; 10 µM 0 | INSRR; 10 µM 0

CC(C)[C@@](C)(O)[C@@H]1CN(c2nc(-c3[nH]nc4ncccc34)c(F)cc2Cl)CCN1
inactive: ERN1; 10 µM 0 | FGFR1; 10 µM 0 | FGFR2; 10 µM 0 | FGFR3; 10 µM 0 | FGR; 10 µM 0 | FLT3; 10 µM 0 | FYN; 10 µM 0 | GSK3A; 10 µM 0 | HER2; 10 µM 0 | INSRR; 10 µM 0

C=CC(=O)N1CCC[C@@H](n2nc(-c3ccc(Oc4ccccc4)cc3)c3c(N)ncnc32)C1 [Ibrutinib]
inactive: ERN1; 2.5 µM 0 | FGFR1; 2.5 µM 0 | FGFR2; 2.5 µM 0 | FGFR3; 2.5 µM 0 | FGR; 2.5 µM 0 | FLT3; 2.5 µM 0 | FYN; 2.5 µM 0 | GSK3A; 2.5 µM 0 | HER2; 2.5 µM 0 | INSRR; 2.5 µM 0

NCCNc1ncc(C(N)=O)c(Nc2cccc(C(F)(F)F)c2)n1 [Syk Inhibitor II]
inactive: ERN1; 10 µM 0 | FGFR1; 10 µM 0 | FGFR2; 10 µM 0 | FGFR3; 10 µM 0 | FGR; 10 µM 0 | FLT3; 10 µM 0 | FYN; 10 µM 0 | GSK3A; 10 µM 0 | HER2; 10 µM 0 | INSRR; 10 µM 0

COc1cc2ncnc(Nc3cccc(Br)c3)c2cc1OC
inactive: ERN1; 10 µM 0 | FGFR1; 10 µM 0 | FGFR2; 10 µM 0 | FGFR3; 10 µM 0 | FGR; 10 µM 0 | FLT3; 10 µM 0 | FYN; 10 µM 0 | GSK3A; 10 µM 0 | HER2; 10 µM 0 | INSRR; 10 µM 0

Nc1ncnc2c1c(-c1cnc3[nH]ccc3c1)nn2C1CCCC1
inactive: ERN1; 2.5 µM 0 | FGFR1; 2.5 µM 0 | FGFR2; 2.5 µM 0 | FGFR3; 2.5 µM 0 | FGR; 2.5 µM 0 | FLT3; 2.5 µM 0 | FYN; 2.5 µM 0 | GSK3A; 2.5 µM 0 | HER2; 2.5 µM 0 | INSRR; 2.5 µM 0

Cc1cn(-c2cc(NC(=O)c3ccc(C)c(Nc4nccc(-c5cccnc5)n4)c3)cc(C(F)(F)F)c2)cn1 [Nilotinib]
inactive: ERN1; 2.5 µM 0 | FGFR1; 2.5 µM 0 | FGFR2; 2.5 µM 0 | FGFR3; 2.5 µM 0 | FGR; 2.5 µM 0 | FLT3; 2.5 µM 0 | FYN; 2.5 µM 0 | GSK3A; 2.5 µM 0 | HER2; 2.5 µM 0 | INSRR; 2.5 µM 0

COc1nccc(-c2c(-c3ccc(F)cc3)ncn2C2CCNCC2)n1
inactive: ERN1; 10 µM 0 | FGFR1; 10 µM 0 | FGFR2; 10 µM 0 | FGFR3; 10 µM 0 | FGR; 10 µM 0 | FLT3; 10 µM 0 | FYN; 10 µM 0 | GSK3A; 10 µM 0 | HER2; 10 µM 0 | INSRR; 10 µM 0

CC1(C)C(=O)N([C@H]2CCc3c(O)cccc32)c2nc(Nc3cccc(CN4CCCC4)c3)ncc21
inactive: ERN1; 2.5 µM 0 | FGFR1; 2.5 µM 0 | FGFR2; 2.5 µM 0 | FGFR3; 2.5 µM 0 | FGR; 2.5 µM 0 | FLT3; 2.5 µM 0 | FYN; 2.5 µM 0 | GSK3A; 2.5 µM 0 | HER2; 2.5 µM 0 | INSRR; 2.5 µM 0

C=CC(=O)N1CCC([C@@H]2CCNc3c(C(N)=O)c(-c4ccc(Oc5ccccc5)cc4)nn32)CC1 [Zanubrutinib]
inactive: ERN1; 10 µM 0 | FGFR1; 10 µM 0 | FGFR2; 10 µM 0 | FGFR3; 10 µM 0 | FGR; 10 µM 0 | FLT3; 10 µM 0 | FYN; 10 µM 0 | GSK3A; 10 µM 0 | HER2; 10 µM 0 | INSRR; 10 µM 0

C[C@H]1CN(C2COC2)CCN1c1ccc(Nc2cc(-c3ccnc(N4CCn5c(cc6c5CC(C)(C)C6)C4=O)c3CO)cn(C)c2=O)nc1 [Fenebrutinib]
inactive: ERN1; 10 µM 0 | FGFR1; 10 µM 0 | FGFR2; 10 µM 0 | FGFR3; 10 µM 0 | FGR; 10 µM 0 | FLT3; 10 µM 0 | FYN; 10 µM 0 | GSK3A; 10 µM 0 | HER2; 10 µM 0 | INSRR; 10 µM 0

COc1ccc(CNC(=O)Nc2ncc([N+](=O)[O-])s2)cc1
inactive: ERN1; 2.5 µM 0 | FGFR1; 2.5 µM 0 | FGFR2; 2.5 µM 0 | FGFR3; 2.5 µM 0 | FGR; 2.5 µM 0 | FLT3; 2.5 µM 0 | FYN; 2.5 µM 0 | GSK3A; 2.5 µM 0 | HER2; 2.5 µM 0 | INSRR; 2.5 µM 0

COc1cc(N2CCN(C)CC2)ccc1Nc1nccc(-c2cn(C)c3cnccc23)n1
inactive: ERN1; 10 µM 0 | FGFR1; 10 µM 0 | FGFR2; 10 µM 0 | FGFR3; 10 µM 0 | FGR; 10 µM 0 | FLT3; 10 µM 0 | FYN; 10 µM 0 | GSK3A; 10 µM 0 | HER2; 10 µM 0 | INSRR; 10 µM 0

O=C1NCCc2[nH]c(-c3ccncc3)cc21
inactive: ERN1; 2.5 µM 0 | FGFR1; 2.5 µM 0 | FGFR2; 2.5 µM 0 | FGFR3; 2.5 µM 0 | FGR; 2.5 µM 0 | FLT3; 2.5 µM 0 | FYN; 2.5 µM 0 | GSK3A; 2.5 µM 0 | HER2; 2.5 µM 0 | INSRR; 2.5 µM 0

O=C(c1ccc(/C=C/c2n[nH]c3ccccc23)cc1)N1CCNCC1
inactive: ERN1; 2.5 µM 0 | FGFR1; 2.5 µM 0 | FGFR2; 2.5 µM 0 | FGFR3; 2.5 µM 0 | FGR; 2.5 µM 0 | FLT3; 2.5 µM 0 | FYN; 2.5 µM 0 | GSK3A; 2.5 µM 0 | HER2; 2.5 µM 0 | INSRR; 2.5 µM 0

O=C(NCCCNc1nc(Nc2cccc(CN3CCOCC3)c2)ncc1C1CC1)C1CCC1
inactive: ERN1; 10 µM 0 | FGFR1; 10 µM 0 | FGFR2; 10 µM 0 | FGFR3; 10 µM 0 | FGR; 10 µM 0 | FLT3; 10 µM 0 | FYN; 10 µM 0 | GSK3A; 10 µM 0 | HER2; 10 µM 0 | INSRR; 10 µM 0

CN1CCN(c2nc(C3=C(c4c[nH]c5ccccc45)C(=O)NC3=O)c3ccccc3n2)CC1 [Sotrastaurin]
inactive: ERN1; 2.5 µM 0 | FGFR1; 2.5 µM 0 | FGFR2; 2.5 µM 0 | FGFR3; 2.5 µM 0 | FGR; 2.5 µM 0 | FLT3; 2.5 µM 0 | FYN; 2.5 µM 0 | GSK3A; 2.5 µM 0 | HER2; 2.5 µM 0 | INSRR; 2.5 µM 0

CC(C)N(CCC(=O)c1ccc2ccccc2c1)Cc1ccccc1
inactive: ERN1; 10 µM 0 | FGFR1; 10 µM 0 | FGFR2; 10 µM 0 | FGFR3; 10 µM 0 | FGR; 10 µM 0 | FLT3; 10 µM 0 | FYN; 10 µM 0 | GSK3A; 10 µM 0 | HER2; 10 µM 0 | INSRR; 10 µM 0

Cc1[nH]c(/C=C2\C(=O)Nc3ccc(F)cc32)c(C)c1C(=O)NC[C@H](O)CN1CCOCC1
inactive: ERN1; 2.5 µM 0 | FGFR1; 2.5 µM 0 | FGFR2; 2.5 µM 0 | FGFR3; 2.5 µM 0 | FGR; 2.5 µM 0 | FLT3; 2.5 µM 0 | FYN; 2.5 µM 0 | GSK3A; 2.5 µM 0 | HER2; 2.5 µM 0 | INSRR; 2.5 µM 0

O=C1Cc2c([nH]c3ccc(Br)cc23)-c2ccccc2N1 [Kenpaullone]
inactive: ERN1; 10 µM 0 | FGFR1; 10 µM 0 | FGFR2; 10 µM 0 | FGFR3; 10 µM 0 | FGR; 10 µM 0 | FLT3; 10 µM 0 | FYN; 10 µM 0 | GSK3A; 10 µM 0 | HER2; 10 µM 0 | INSRR; 10 µM 0

O=c1ncn2nc(Sc3ccc(F)cc3F)ccc2c1-c1c(Cl)cccc1Cl [Neflamapimod]
inactive: ERN1; 10 µM 0 | FGFR1; 10 µM 0 | FGFR2; 10 µM 0 | FGFR3; 10 µM 0 | FGR; 10 µM 0 | FLT3; 10 µM 0 | FYN; 10 µM 0 | GSK3A; 10 µM 0 | HER2; 10 µM 0 | INSRR; 10 µM 0

CCN(CC)CCNC(=O)c1c(C)[nH]c(/C=C2\C(=O)Nc3ccc(F)cc32)c1C [Sunitinib]
inactive: ERN1; 2.5 µM 0 | FGFR1; 2.5 µM 0 | FGFR2; 2.5 µM 0 | FGFR3; 2.5 µM 0 | FGR; 2.5 µM 0 | FLT3; 2.5 µM 0 | FYN; 2.5 µM 0 | GSK3A; 2.5 µM 0 | HER2; 2.5 µM 0 | INSRR; 2.5 µM 0
